# Laboratory results from patent EP3581587A1 (Shanghai Benemae Pharmaceutical Corporation, dated 2019).
# Amino acid sequences for entries named in this document (tags omitted). A change or cut given only in a name is not applied to a line headed by its entry.
# UniProt P03951: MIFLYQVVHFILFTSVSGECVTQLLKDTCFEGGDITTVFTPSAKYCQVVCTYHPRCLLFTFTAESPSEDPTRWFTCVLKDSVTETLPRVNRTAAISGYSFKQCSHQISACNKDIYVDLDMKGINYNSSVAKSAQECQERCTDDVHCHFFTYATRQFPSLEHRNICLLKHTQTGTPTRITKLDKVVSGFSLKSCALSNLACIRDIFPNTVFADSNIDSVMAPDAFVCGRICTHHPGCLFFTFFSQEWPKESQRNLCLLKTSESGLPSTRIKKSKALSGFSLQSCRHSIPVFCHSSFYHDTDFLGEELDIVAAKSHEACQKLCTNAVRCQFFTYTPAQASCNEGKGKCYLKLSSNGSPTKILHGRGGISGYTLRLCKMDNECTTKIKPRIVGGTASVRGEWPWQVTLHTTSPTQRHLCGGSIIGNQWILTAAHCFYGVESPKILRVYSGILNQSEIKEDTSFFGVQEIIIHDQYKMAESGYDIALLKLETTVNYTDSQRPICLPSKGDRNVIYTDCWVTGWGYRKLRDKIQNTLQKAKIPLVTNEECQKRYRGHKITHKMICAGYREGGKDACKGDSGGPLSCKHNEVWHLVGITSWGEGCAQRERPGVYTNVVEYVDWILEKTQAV
# Results are given in words; binding and its absence hold for the method and conditions named. Binding can be weak; no strength is given.
# Target: human activated coagulation factor XI (FXIa) (human) (UniProt P03951)
# Assay: SPR, captured antibody, FXIa in flow
row,binding,Binder
1,binds,"h-34F8 (antibody, human IgG4, V domains shown) VH: QVQLQESGPGLVKPSETLSLTCTVSGFSLTTYHVHWVRQPPGKGLEWIGIMWRDGDTYYNSSLKSRVTISRDTSKNQVSLKLSSVTAADTAVYFCARGGTLTTPFTYWGQGTLVTVSS VL: DVVLTQTPLSLPVTPGEPASISCRSSQSLESRDGNTYLEWYLQKPGQSPQVLLYGVSNRLSGVPDRFSGSGSGTDFTLKISRVEAEDVGVYYCFQATHGPFTFGQGTKLEIKR"
2,binds,"h-42A5 (antibody, human IgG4, V domains shown) VH: QVTLKESGPVLVKPTETLTLTCTVSGFSLTSYHLHWIRQPPGKALEWMGLMWRDGDTSYNSRLKSRLTISRDTSKSQVVLTMTNMDPVDTATYYCARGMTLATPFLYWGQGTLVTVSS VL: DVVLTQTPLSLSVTPGQPASISCRSSQSLESSDGNTYLEWYLQKPGQSPQLLIYGVSNRFSGVPDRFSGSGSGTDFTLKISRVEAEDLGVYYCFQATRDPFTFGQGTKLEIKR"
3,binds,"h-19F6 (antibody, human IgG4, V domains shown) VH: EVQLVESGGGLVQPGRSLRLSCTASGFTFSKYAMSWVRQAPGKGLEWVSAINYDGSTTYYADSVKGRFTLSRDNSKNTLYLQMNSLRAEDTAVYYCARHPFNNFGIWFAYWGQGTLVTVS VL: QFQLTQPSSVSASVGDRVTITCERSSGDIGDSYVSWYQQKPGQPPKNVIYADDQRPSGVPDRFSGSIDGSGNSASLTISSLQAEDAADYFCQSYDSNIDFNPVFGGGTKLEVK"
